# PubChem BioAssay AID1159578 | Peter MacCallum Cancer Centre | 2015
# Screen: 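Genome-wide hunt for genes controlling movement of lymphatic endothelial cells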 (primary screen)
# Cell system: human lymphatic endothelial cells
# Reagent: siRNA pool against human genes, 40 nM
# Timing: 48 h after transfection
# Read-out: 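High-content imaging of dye-stained cells in a scratch assay measures filled wound area and nuclei per well; duplicate means given as ratio to mock and robust z-score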
# Scale: migration robust z-score: higher = faster migration into the scratch; migration relative to mock: higher = more scratch area covered than mock; nuclei per well: higher = more cells in the well
# Hit rule: 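Pools averaging fewer than 3300 nuclei are never called; remaining pools count as changed when migration robust z lies outside -2 to 2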
# Meaning of the calls: active = migration changed; inactive = no migration change, or too few cells
# The deposit covers about 18,000 reagents; shown is a part drawn at random. About 1,030 of them (5.7%) were called active. 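Inactive calls also include pools with fewer than 3300 nuclei, whose migration was not assessed.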 Raw values are not corrected between plates. Entries without a mark were called inactive.
target gene,PubChem SID,migration robust z-score,migration class with cell-count check,migration relative to mock,"nuclei per well, duplicate mean"
TXLNB,SID255363862,2.63 (active),migration z above 2; enough cells,1.57,8028
TNFSF8,SID255348774,2.14 (active),migration z above 2; enough cells,1.44,5978
DHX32,SID255358839,0.02,migration z between -2 and 2; enough cells,0.81,5154
PIK3C2B,SID255351578,-0.8,migration z between -2 and 2; enough cells,0.65,4950
GATA4,SID255349838,0.03,migration z between -2 and 2; enough cells,0.81,5507
KLK9,SID255364774,0.67,migration z between -2 and 2; enough cells,0.93,5106
MAP3K11,SID255350980,-0.91,migration z between -2 and 2; enough cells,0.63,5278
RHBDL1,SID255353977,1.14,migration z between -2 and 2; enough cells,1.02,5513
ATXN3,SID255350972,-0.69,migration z between -2 and 2; enough cells,0.7,7720
PPP4R1,SID255354722,0.86,migration z between -2 and 2; enough cells,0.97,5554
MXRA7,SID255365880,1.77,migration z between -2 and 2; enough cells,1.34,4460
RAB11FIP5,SID255356643,0.04,migration z between -2 and 2; enough cells,0.89,5310

Called active, of those listed so far:
target gene,PubChem SID,migration robust z-score,migration class with cell-count check,migration relative to mock,"nuclei per well, duplicate mean"
TXLNB,SID255363862,2.63 (active),migration z above 2; enough cells,1.57,8028
TNFSF8,SID255348774,2.14 (active),migration z above 2; enough cells,1.44,5978

Continued:
target gene,PubChem SID,migration robust z-score,migration class with cell-count check,migration relative to mock,"nuclei per well, duplicate mean"
CBARP,SID255364480,-0.24,migration z between -2 and 2; enough cells,0.82,5570
PSMD14,SID255354901,-0.57,migration z between -2 and 2; enough cells,0.7,5213
PBDC1,SID255357597,0.58,migration z between -2 and 2; enough cells,1.04,5788
IL13RA1,SID255350478,-0.02,migration z between -2 and 2; enough cells,0.8,5272
RAB27B,SID255352010,-0.21,migration z between -2 and 2; enough cells,0.76,5165
PTCD2,SID255360480,-1.84,migration z between -2 and 2; enough cells,0.4,5803
RAB3A,SID255352000,0.08,migration z between -2 and 2; enough cells,0.82,5638
TRAF3,SID255352961,0.5,migration z between -2 and 2; enough cells,0.9,4867
OR7E24,SID255356832,1.69,migration z between -2 and 2; enough cells,1.33,6238
CCT6B,SID255355291,2.46 (active),migration z above 2; enough cells,1.28,5868
GAGE12I,SID255356848,0.46,migration z between -2 and 2; enough cells,1,4594
